Measured values as given in patent US6924278B2, “Aroyl-piperazine derivatives, their preparation and their use as tachykinin antagonists” (Fujisawa Pharmaceutical Co., Ltd., priority 1997, dated 2005).
Some entries share one result that the patent states for a list of compounds. At least one structure is not confirmed: it was looked up by name or label, or the drawing left a doubt.

Amino acid sequences for entries named in this document (tags omitted).
UniProt P25103, whole entry: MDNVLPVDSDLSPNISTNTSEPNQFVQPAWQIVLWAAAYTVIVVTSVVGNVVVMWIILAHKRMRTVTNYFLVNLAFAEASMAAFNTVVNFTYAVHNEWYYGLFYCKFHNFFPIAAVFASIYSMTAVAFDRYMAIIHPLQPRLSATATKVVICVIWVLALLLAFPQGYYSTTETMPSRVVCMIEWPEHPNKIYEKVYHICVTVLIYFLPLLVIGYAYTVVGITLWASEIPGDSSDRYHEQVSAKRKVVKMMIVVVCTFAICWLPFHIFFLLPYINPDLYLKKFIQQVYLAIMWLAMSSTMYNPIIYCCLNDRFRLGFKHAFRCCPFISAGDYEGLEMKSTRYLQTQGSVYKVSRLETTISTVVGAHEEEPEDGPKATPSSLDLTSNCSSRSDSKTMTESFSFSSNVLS

target: T1, h-NK1 receptors (Homo sapiens, UniProt P25103); test: Evaluation of NK1 antagonist transport efficiency to the central nervous system using a h-NK1 receptor binding assay (brain extract after i.v. dosing of rats); details: compound extracted from brain of male SD rats 5 min after i.v. injection at the dose of 1 mg/kg; CHO cell membranes expressing h-NK1
T1 construct: expressed in transfected cells; host or cells: CHO cells (permanent expression), crude cell membranes
Method: A. Evaluation of NK1 Antagonist Transport Efficiency to the Cental Nervous System using a h-NK1 Receptor Binding Assay
(1) Administration of Test Compound and Extraction of the Compound from Brain
Male SD rats were given an i.v. injection of a solution containing a test compound (1 mg/kg). 5 Min later the animals were anesthetized by ether, bled and perfused through the aorta ascendens with 20 ml of saline. The brain was rapidly removed, weighed and homogenized in 4 vol. ice-cold distilled water by using Polytoron (KINEMATICA). To extract the test compound, 500 μl of the homogenate, 100 μl of methanol, 500 μl of 0.1 N NaOH and 4 ml of ethyl acetate were mixed by shaking for 10 min at room temperature. The organic phase (2.5 ml) was recovered by centrifugation at 3,000 rpm for 10 min, dried and dissolved in dimethyl sulfoxide.
(2) h-NK1 Receptor Binding Assay
(a) Crude CHO Cell Membrane Preparation
CHO cells permanently expressing h-NK1 receptors were harvested and homogenized with a Dounce homogenizer at 4° C. in a buffer (0.25 M sucrose, 25 mM Tris-HCl (pH 7.4), 10 mM MgCl2, 1 mM EDTA, 5 μg/ml p-APMSF). The homogenate was centrifuged (500×g, 10 min), and the pellet was resuspended in the same buffer, homogenized, and centrifuged. The two supernatants were combined and centrifuged (100,000×g, 1 hour). The crude cell membranes thus isolated were resuspended in a buffer (25 mM Tris-HCl (pH 7.4), 10 mM MgCl2, 1 mM. EDTA, 5 μg/ml p-APMSF) and stored at −80° C. until use.
(b) ^125I-BH-Substance P Binding to the Prepared Membrane
Cell membranes (6 μg/ml) were incubated with ^125I-BH-Substance P (0.1 nM) with or without the extracted compounds in 0.25 ml of a medium (50 mM Tris-HCl (pH 7.4), 5 mM MnCl2, 20 μg/ml chymostatin, 40 μg/ml bacitracin, 4 μg/ml leupeptin, 5 μg/ml p-APMSF, 200 μg/ml BSA) at 22° C. for 90 min. At the end of the incubation period, the contents were quickly filtered through a Blue Mat 11740 filter (pretreated with 0.1% polyethylenimine for 3 hours prior to use) by using SKATRON Cell Harvester. The filter was then washed with a washing buffer (50 mM Tris-HCl (pH 7.4), 5 mM MnCl2). The radioactivity was counted by using an auto gamma counter (Packard RIASTAR 5420A). All data presented are specific binding defined as that displaceable by 3 μM unlabeled Substance P.

Inhibition rate of 125I-BH-Substance P binding to h-NK1 receptors, more than 80%:
C[C@H]1COC[C@H](C)N1CC#CCN1CCN(C(=O)c2cc(C(F)(F)F)cc(C(F)(F)F)c2)[C@H](Cc2c[nH]c3ccccc23)C1.Cl.Cl [Example 77]
COC[C@@H]1CN(CCN2CCN(C(=O)c3cc(C(F)(F)F)cc(C(F)(F)F)c3)[C@H](Cc3ccc(C)c(C)c3)C2)CCO1.Cl.Cl [80-(3), (2R)-1-[3,5-Bis(trifluoromethyl)benzoyl]-2-(3,4-dimethylbenzyl)-4-[2-((2S)-2-methoxyrmethylmorpholino)ethyl]piperazine dihydrochloride]
COC[C@@H]1CN(CCN2CCN(C(=O)c3cc(C(F)(F)F)cc(C(F)(F)F)c3)[C@H](Cc3c[nH]c4ccccc34)C2)CCO1.Cl.Cl [81-(7), (2R)-1-[3,5-Bis(trifluoromethyl)benzoyl]-2-[(1H-indol-3-yl)methyl]-4-[2-((2S)-2-methoxympethylmorpholino)ethyl]piperazine dihydrochloride]
COc1cccc(CC2CN(CC#CCN3CCOCC3(C)C)CCN2C(=O)c2cc(C(F)(F)F)cc(C(F)(F)F)c2)c1.Cl.Cl (centres unmarked) [89-(2), 1-[3,5-Bis(trifluoromethyl)benzoyl]-2-(3-methoxybenzyl)-4-[4-(3,3-dimethyl)morpholino-2-butynyl]piperazine dihydrochloride]
Cc1ccnc(C#CCN2CCN(C(=O)c3cc(C(F)(F)F)cc(C(F)(F)F)c3)[C@H](Cc3c[nH]c4ccccc34)C2)c1.Cl.Cl [76-(3), (2R)-1-[3,5-Bis(trifluoromethyl)benzoyl]-2-[(1H-indol-3-yl)methyl]-4-{3-[2-(4-methyl)pyridyl]-2-propynyl}piperazine dihydrochloride]
COc1ccnc(C#CCN2CCN(C(=O)c3cc(C(F)(F)F)cc(C(F)(F)F)c3)[C@H](Cc3c[nH]c4ccccc34)C2)c1.Cl.Cl [76-(1), (2R)-1-[3,5-Bis(trifluoromethyl)benzoyl]-2-[(1H-indol-3-yl)methyl]-4-{3-[2-(4-methoxy)pyridyl]-2-propynyl}piperazine dihydrochloride]
Cc1ccnc(CCCN2CCN(C(=O)c3cc(C(F)(F)F)cc(C(F)(F)F)c3)[C@H](Cc3c[nH]c4ccccc34)C2)c1.Cl.Cl [83-(2), (2R)-1-[3,5-Bis(trifluoromethyl)benzoyl]-2-[(1H-indol-3-yl)methyl]-4-{3-[2-(4-methyl)pyridyl]propyl}piperazine dihydrochloride]
Cc1ccc(C[C@@H]2CN(CCN3CCOCC34CC4)CCN2C(=O)c2cc(C(F)(F)F)cc(C(F)(F)F)c2)cc1C.Cl.Cl [78-(3)]
